Measured values taken from PubChem BioAssay AID1671190 (National Center for Advancing Translational Sciences (NCATS), 2021).
The whole screen tested about 580,000 compounds, of which about 6,100 (1.1%) were called active. Inconclusive means that the source gave no clear call. Such entries were picked first, then a sample of the others. Calls come from the whole dose curve; as a rule, active = well fitted inhibition curve with a large enough effect; inconclusive = small, poorly fitted or top-dose-only effect, or another doubt; inactive = no such curve, though single readings can be large or run the other way. A potency beside an inconclusive call is a rough fit, not a confirmed value.

By UniProt entry, the sequences of proteins in these tests, tags left out.
UniProt P18054, whole entry, looked up: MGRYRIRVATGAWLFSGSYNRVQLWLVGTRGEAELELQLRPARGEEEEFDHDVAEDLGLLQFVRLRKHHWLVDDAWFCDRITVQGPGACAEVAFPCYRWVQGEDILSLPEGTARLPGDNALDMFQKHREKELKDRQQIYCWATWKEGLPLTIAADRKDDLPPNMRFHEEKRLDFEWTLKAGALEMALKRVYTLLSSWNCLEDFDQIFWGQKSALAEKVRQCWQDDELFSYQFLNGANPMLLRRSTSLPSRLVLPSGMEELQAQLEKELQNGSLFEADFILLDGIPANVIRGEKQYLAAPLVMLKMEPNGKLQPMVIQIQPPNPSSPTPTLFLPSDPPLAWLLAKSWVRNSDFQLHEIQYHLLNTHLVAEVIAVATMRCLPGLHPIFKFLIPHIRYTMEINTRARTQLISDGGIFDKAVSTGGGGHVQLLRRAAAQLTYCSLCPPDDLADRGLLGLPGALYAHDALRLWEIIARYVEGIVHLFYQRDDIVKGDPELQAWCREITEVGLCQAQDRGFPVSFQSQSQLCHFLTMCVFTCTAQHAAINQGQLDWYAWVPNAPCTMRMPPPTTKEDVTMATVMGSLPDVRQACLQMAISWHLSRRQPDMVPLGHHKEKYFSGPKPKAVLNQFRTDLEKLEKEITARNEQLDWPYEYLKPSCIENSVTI

The compounds below were run against Polyunsaturated fatty acid lipoxygenase ALOX12 (Homo sapiens) (UniProt P18054) (assay: Primary qHTS assay for inhibitors of human arachidonate 12S-lipoxygenase (ALOX12): Round 2). Conditions: purified 12hLO, xylenol orange hydroperoxide absorbance; activity change, negative = inhibition: at 108 µM (top of the series) unless noted.
How it was run: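 Hydroperoxide product was detected by ferrous iron/xylenol orange as the 573 to 405 nm absorbance ratio. Arachidonic acid at 40 uM (final) was turned over for 30 min at room temperature by 150 nM human 12hLO, pH 7.0 Hepes buffer, after 15 min compound preincubation.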
% is set by controls: 0 for no effect and ±100 for the full control effect; potency is the fitted concentration of half-maximal effect.

SMILES	Potency	activity change, negative = inhibition
COc1ccc(CCNC(=O)CNS(=O)(=O)c2ccc(Br)cc2)cc1	inconclusive: 100 µM [inhibitor, partial curve, poor fit]	–
O=C(c1ccccc1Cl)N1CCc2nc(-c3ccc(Cl)cc3)nc(-c3ccccc3)c2C1	–	inactive: -3.82%
COc1cc(/C=N/O)ccc1OCc1ccc(Cl)cc1	–	inactive: -7.25%
CCOc1ccc(NC(=O)c2ccco2)c([N+](=O)[O-])c1	–	inactive: -5.94%
O=C(Nc1ccc(F)cc1F)C1CC2CCC1C2 (stereo not given)	–	inactive: 6.74%
c1ccc(Nc2nc(-c3cccs3)cs2)nc1	inconclusive: 44.7 µM [inhibitor, partial curve, poor fit]	–
Cc1ccc(-n2c(=O)c3cccnc3n2CC(=O)Nc2cc(Cl)ccc2C)cc1	inconclusive: 100 µM [inhibitor, partial curve, poor fit]	–
CC(=O)c1ccc(NC(=O)Cn2cnc3c2c(=O)n(C)c(=O)n3C)cc1	–	inactive: -2.26%
N#C/C(=C(/O)CCl)c1nc2ccccc2[nH]1	–	inactive: 1.94%
COCCn1c(C23CC4CC(CC(C4)C2)C3)n[nH]c1=S	inconclusive: 35.5 µM [inhibitor, partial curve, poor fit]	–
COc1cc(OC)c(OC)cc1CN1C[C@@H]2C(=O)N(C)C(=O)[C@@H]2C1	–	inactive: 21.3%
COc1ccc(/C=N/NC(=O)c2nn(-c3ccccc3)c(=O)c3c(N)scc23)cc1	inconclusive: 0.199 µM [inhibitor, full curve, poor fit]	–
CC(=O)N(c1ccc2oc(=O)sc2c1)S(=O)(=O)c1ccccc1	inconclusive: 4.47 µM [inhibitor, full curve, poor fit]	–
COc1ccc2c(c1)c(C(C(=O)O)N1CCN(c3ccc(F)cc3)CC1)cn2CCC(=O)O (stereo not given)	inconclusive: 70.8 µM [inhibitor, partial curve, poor fit]	–
C=CC[C@@H](CC(=O)N[C@H](CO)Cc1ccccc1)C(=O)NCCOC(=O)[C@@H](CC=C)Cc1ccc(F)cc1	inconclusive: 3.98 µM [inhibitor, full curve, poor fit]	–
CC(NC(=O)c1ccco1)C(=O)Nc1nc(-c2ccc3ccccc3c2)cs1 (stereo not given)	inconclusive: 2.51 µM [inhibitor, full curve, poor fit]	–
Cc1ccn(CCC(=O)NCC2Cc3cc(Cl)cc(-c4ccc5[nH]ccc5c4)c3O2)n1 (stereo not given)	inconclusive: 100 µM [inhibitor, single point]	–
O=C(Nc1ccccc1)c1ccc(S(=O)(=O)N2CCCC2)cc1	–	inactive: 26.1%
CCOCCCNCc1ccc(F)cc1	inconclusive: 0.282 µM [inhibitor, full curve, poor fit]	–
Cn1ncc([N+](=O)[O-])c1C(=O)Nc1ccc(-c2nc3ccccc3[nH]2)cc1	–	inactive: 12.3%
Cc1ccc(NC(=O)Cn2c(=O)n(CCCCC(=O)NCc3ccccc3Cl)c(=O)c3ccccc32)cc1	inconclusive: 63.1 µM [inhibitor, partial curve, poor fit]	–
Cc1cccc(C)c1NC(=O)C(c1cccc(F)c1)N1CCN(C)CC1 (stereo not given)	inconclusive: 79.4 µM [inhibitor, single point]	–

SMILES	Potency	activity change, negative = inhibition
Cc1cc2ncn(S(=O)(=O)c3ccc(S(N)(=O)=O)cc3)c2cc1C	inconclusive: 100 µM [inhibitor, single point]	–
COc1ccc(NC(=O)N2c3ccc(OC)cc3[C@@H](NC(=O)c3ccc(C)s3)[C@H](C)[C@H]2c2ccccc2)cc1	inconclusive: 100 µM [inhibitor, single point]	–
Cc1ccc(-c2nn3c(C)nnc3s2)cc1NC(=O)c1ccc(Br)o1	inconclusive: 44.7 µM [inhibitor, partial curve, poor fit]	–
CC(C)CC(=O)NC1(C(F)(F)F)C(=O)Nc2c1c(=O)[nH]c(=O)n2-c1ccccc1 (stereo not given)	active: 31.6 µM	–
O=C(Nc1cccc(C(F)(F)F)c1)c1cc(-c2ccco2)on1	inconclusive: 50.1 µM [inhibitor, partial curve, poor fit]	–
O=C(CO/N=C/c1ccccc1OC(F)F)NCc1cccs1	–	inactive: 6.85%
CC(C)(C)c1ccc(NC(=O)COC(=O)c2ccc([N+](=O)[O-])s2)cc1	inconclusive: 2.82 µM [inhibitor, full curve, poor fit]	–
COc1ccc(-c2nc(C(=O)N3CCN(c4ccc(C(C)=O)cc4)CC3)cs2)cc1OC	inconclusive: 126 µM [inhibitor, single point]	–
C=CCn1c(=O)/c(=C/c2ccc(C)o2)s/c1=C(/C#N)C(=O)c1ccccc1	active: 11.2 µM	–
CCc1ccccc1SCc1noc(C(=O)NCC2CCCO2)c1C(=O)O (stereo not given)	inconclusive: 50.1 µM [inhibitor, partial curve, poor fit]	–
COc1ccc(OCCCC(=O)N2CCN(S(=O)(=O)c3cccc(F)c3)CC2)cc1	inconclusive: 56.2 µM [inhibitor, partial curve, poor fit]	–
Cc1ccc(Cc2c(C(C)(C)C)nc3cc(C)c(Br)c(C)n23)cc1	inconclusive: 50.1 µM [inhibitor, partial curve, poor fit]	–
COc1cc(C(=O)NC(c2ccc(Cl)cc2)c2cc(Cl)c3cccnc3c2O)cc(OC)c1OC (stereo not given)	–	inactive: -25.6%
N#CCCC(CCC#N)C1=NCCc2ccccc21	inconclusive: 100 µM [inhibitor, single point]	–
C=CCn1c(C)cc(C(=O)CN2C(=O)NC3(CCCc4ccccc43)C2=O)c1C (stereo not given)	–	inactive: 1.41%
O=C1NCCCc2[nH]c(-c3cnn(-c4ccc(F)cc4)c3)nc21	–	inactive: 53.4%
CCc1ccc(CN2CCC(C(=O)Nc3ccc(-n4nc(C)cc4C)cc3)CC2)o1	inconclusive: 11.2 µM [inhibitor, partial curve, poor fit]	–
COc1cc(NC(=O)Cn2c(N(C)Cc3ccccc3)nc(C)cc2=O)cc(OC)c1	inconclusive: 44.7 µM [inhibitor, partial curve]	–
CCCC(c1nnnn1CS(=O)(=O)c1ccc(C)cc1)N1CCN(CC)CC1 (stereo not given)	inconclusive: 11.2 µM [inhibitor, full curve, poor fit]	–
O=C1NC(=O)/C(=C\c2ccc(O)cc2O)S1	active: 39.8 µM	–
COc1ccc(CNC(=S)NCc2ccc(OC)cc2)cc1	inconclusive: 39.8 µM [inhibitor, partial curve, poor fit]	–
COc1ccc(N(C(=O)/C=C\C(=O)Nc2ccc(C)cc2)C(C(=O)NCc2ccco2)c2ccc(C)cc2)cc1 (stereo not given)	–	inconclusive: -38.6% [inhibitor]

SMILES	Potency	activity change, negative = inhibition
Cc1cc(NC(=O)c2cc([N+](=O)[O-])ccc2Cl)no1	–	inactive: 0%
O=C(c1ccco1)N1CCN(c2ccc([N+](=O)[O-])cc2F)CC1	inconclusive: 28.2 µM [inhibitor, full curve, poor fit]	–
CCN(Cc1ccccc1)S(=O)(=O)c1ccc(S(N)(=O)=O)cc1	inconclusive: 2 µM [inhibitor, full curve, poor fit]	–
C#CCN(C[C@@H]1[C@@H](OC(=O)NC2CCCC2)[C@@H](OC(=O)NC2CCCC2)Cn2c(=O)ccc(=O)n21)S(=O)(=O)c1ccc(C)cc1	inconclusive: 89.1 µM [inhibitor, partial curve, poor fit]	–
CC1=C[C@@H](CNC(=O)N2CCOCC2)[C@H](C(C)C)C[C@H]1Cc1nc2ccccc2n1C	–	inactive: 59.2% [at 176 µM]
CCOC(=O)c1sc(CC(=O)Nc2ccc(CC)cc2)nc1C	inconclusive: 0.224 µM [inhibitor, full curve, poor fit]	–
CC(CNC(=O)c1ccccc1Cl)NC(=O)c1ccccc1Cl (stereo not given)	inconclusive: 112 µM [inhibitor, single point]	–
O=C(NC[C@H]1O[C@@H](CO)[C@@H](O)[C@H]1N1CCCC1)c1ccccc1	–	inactive: 11.4% [at 176 µM]
CCCOc1ccc(OCCN2CCCC(C)C2)cc1 (stereo not given)	inconclusive: 3.55 µM [inhibitor, full curve, poor fit]	–
COCCn1c(=O)c(-c2cccc(C#N)c2)nc2cnc(Oc3cccc(Cl)c3)nc21	inconclusive: 25.1 µM [inhibitor, single point]	–
CCCNc1nc(-c2ccc(NC(C)=O)cc2F)cs1	inconclusive: 3.98 µM [inhibitor, full curve, poor fit]	–
Cc1ccc2cccc(OC(=O)c3ccc4c(c3)OCCO4)c2n1	inconclusive: 0.224 µM [inhibitor, full curve, poor fit]	–
CC[n+]1c(/C=C2/C=C(C)CC(C)C2)sc2ccccc21 (stereo not given)	inconclusive: 15.8 µM [inhibitor, partial curve, poor fit]	–
CC(=O)N(Cc1ccco1)CC1C(C)C=C(C)CC1C (stereo not given)	inconclusive: 100 µM [inhibitor, single point]	–
Cc1cc(SC(C(=O)O)c2ccccc2)ncn1 (stereo not given)	inconclusive: 15.8 µM [inhibitor, full curve]	–
CCNC(=S)/N=C(/Nc1ccc(OC)cc1)Nc1nc(C)cc(C)n1	inconclusive: 56.2 µM [inhibitor, partial curve, poor fit]	–
Cc1nc2ccccc2c(C)c1CC(=O)NCC(C)C	–	inactive: -2%
Cc1cc(C)c(CNC(=O)c2nc(-c3ccc(F)cc3)cc3c2ccn3C(C)C)c(=O)[nH]1	inconclusive: 100 µM [inhibitor, partial curve, poor fit]	–
CCc1nc(N2CCN(C(=O)CN3CCN(C)CC3)CC2)c(C#N)c2c1COC(C)(C)C2	–	inactive: 25.4%
CN(C)c1cccc2c(S(=O)(=O)N3CCCC3)cccc12	inconclusive: 1.12 µM [inhibitor, full curve, poor fit]	–
NC(=O)c1ccc(NC(=O)CN2C(=O)NC3(CCCCCCC3)C2=O)cc1	inconclusive: 2.51 µM [inhibitor, full curve, poor fit]	–

One compound at a time (already shown). Values in the order: Potency | activity change, negative = inhibition
`N#C/C(=C(/O)CCl)c1nc2ccccc2[nH]1` is entered as – | inactive: 1.94%
`COc1cc(C(=O)NC(c2ccc(Cl)cc2)c2cc(Cl)c3cccnc3c2O)cc(OC)c1OC` (stereo not given) is entered as – | inactive: -25.6%
`CC(C)(C)c1ccc(NC(=O)COC(=O)c2ccc([N+](=O)[O-])s2)cc1` is entered as inconclusive: 2.82 µM [inhibitor, full curve, poor fit] | –
